From paper PMC9266971
Results are given in words; binding and its absence hold for the method and conditions named. Binding seen in cells or lysates may run through a third protein. Some binding calls cover weakened binding; strength is not graded here.

Amino acid sequences for entries named in this document (tags omitted). A change or cut given only in a name is not applied to a line headed by its entry. Chains listed by the source or under a name are the forms on record and can include a tag or linker.
Sarcoplasmic reticulum calcium ATPase (SERCA2a), mouse heart (mouse (endogenous in mouse heart)) (O55143, form named): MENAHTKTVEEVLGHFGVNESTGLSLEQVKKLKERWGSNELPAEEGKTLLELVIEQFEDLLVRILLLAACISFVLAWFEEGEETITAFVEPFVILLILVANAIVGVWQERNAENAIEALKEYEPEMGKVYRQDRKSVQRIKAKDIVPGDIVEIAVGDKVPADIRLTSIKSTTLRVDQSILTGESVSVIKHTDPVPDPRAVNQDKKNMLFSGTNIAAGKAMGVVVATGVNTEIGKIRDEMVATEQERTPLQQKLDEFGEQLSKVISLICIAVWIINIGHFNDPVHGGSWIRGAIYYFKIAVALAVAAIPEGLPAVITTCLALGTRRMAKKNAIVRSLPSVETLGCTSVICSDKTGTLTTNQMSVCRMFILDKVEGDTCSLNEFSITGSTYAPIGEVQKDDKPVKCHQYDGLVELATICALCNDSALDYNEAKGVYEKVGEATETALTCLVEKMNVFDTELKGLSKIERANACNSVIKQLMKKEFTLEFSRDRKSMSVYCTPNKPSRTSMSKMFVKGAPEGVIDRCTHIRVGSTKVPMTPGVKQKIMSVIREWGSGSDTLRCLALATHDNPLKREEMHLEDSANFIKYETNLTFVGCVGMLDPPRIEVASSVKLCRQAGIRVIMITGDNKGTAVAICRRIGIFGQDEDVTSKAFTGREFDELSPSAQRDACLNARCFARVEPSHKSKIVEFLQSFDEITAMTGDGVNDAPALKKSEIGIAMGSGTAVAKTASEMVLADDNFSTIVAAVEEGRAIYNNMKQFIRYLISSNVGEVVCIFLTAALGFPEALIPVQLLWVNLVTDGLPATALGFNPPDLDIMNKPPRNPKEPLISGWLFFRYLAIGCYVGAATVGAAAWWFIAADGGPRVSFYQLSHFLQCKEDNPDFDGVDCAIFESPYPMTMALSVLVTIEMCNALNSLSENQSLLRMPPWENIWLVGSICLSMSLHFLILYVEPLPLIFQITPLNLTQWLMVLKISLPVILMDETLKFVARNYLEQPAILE

Legend:
[1] = molecular target: Sarcoplasmic reticulum calcium ATPase (SERCA2a), mouse heart (mouse (endogenous in mouse heart)) (UniProt O55143); assay: co-IP; SERCA2 antibody and protein G PLUS agarose on cardiac homogenates (1 g/L) of PLN-WT or humanized PLN-R14del mice, 4 °C, 16 h; Western blot for PLN and HAX-1
[2] = molecular target: GST-PLN-R14del recombinant protein (UniProt P26678); assay: pull-down; equivalent amounts of GST-PLN-WT or GST-PLN-R14del on glutathione beads mixed with 0.5 mg wild-type mouse cardiac homogenate (10 mM NaPO4 pH 7.2, 2 mM EDTA, 10 mM NaN3, 120 mM NaCl, 1% NP-40), 4 °C, 16 h; Western blot; for Figure 3c the GST proteins were first treated with PKA; only the target purified
[3] = molecular target: GST-PLN-WT recombinant protein (UniProt P26678); assay: as above

B1: PLN in hearts of WT (PLN-WT) mice (protein, UniProt P61014 1-52)
chain: MEKVQYLTRSAIRRASTIEMPQQARQNLQNLFINFCLILICLLLICIIVMLL
binding [1]: binds

B2: GM, muscle-specific glycogen-targeting subunit of PP1, mouse heart (protein, UniProt Q99MR9 1-1089)
chain: MEPAEEPGQISKDNFLEVPNLSDSVCEDEEVKATFKPGFSPQPSRRGSGSSEDMYLDTPTSASRRVSFADSLGFSLVSVKEFDCWELPSVSTDFDLSGDVFHTDEYVLSPLFDLPSSKEKLMEQLQVQKAVLESAEHLPGSSMKGIIRVLNISFEKLVYVRMSLDDWQTHYDILAEYVPNSCDGETDQFSFKISLVPPYQKEGGKVEFCIRYETSAGTFWSNNNGTNYILVCQKKRKEPEPVKPLEEAPSRQIKGCLKVKSRSKEEPLLAPEENKFETLKFTESYIPTIICSHEDKDDLGANHPNVDDINKKHDEHNGKELDLMINQRLITSQDEKNTFATDTVNFTNKAEGSEKKQAYHEINTDLFMGPLSPSLSAESSLKRDFYHSRSSSPGNEYGHPHSEEIISDMGEKGPSLGDTSSDELMQLELCSKEDLDDNANPANGSGRVCSSFDQRMACGLKNNEAGIKKTGIQDYKYSHGDSTKLEESNASSRDDYAKVDNKKEKQTCLGVNENPSKNFQSVFQTQEGHMGYPKISTEGDKANNQDLTSLLSKDITANTWAVTVDPCPSTNAKRSWREVGSGSNLEPGTSDLSSPRNFSPLTDDHLFQADRENSDSSNPENQNMNTRHRKKWNVLETQSETSETESDIAKHTKEQAEYKDMWEKTDNSRNLKATPTEHLFTCRETECYGLSSLADHGITEKAQAVTAYIIKTTLESTPESASARGKAIIAKLPQETAGNDRPIEVKETAFDPHEGRKDDSHYSLCHGDTAGVIHDNDFERESHLDICNLRVDEMKKEKTTSTCFPQKTYDKEKHGIGSVTSIDEPSQVITGNQKATSKLDLHLGVLPTDRAIFQANADLELLQELSRRTDFNAVPSAFNSDTASASRDSSQVYRHCSKKSVPSYGEEKAVTNTTLQSIPTKSEYNWHPESEVLGHAMSKPEDVFKSSEIMKSGSGGERGGGPILQQKEGSLENSQGPMFFTNEPLENLDEASSENEGLMHSGQSQCYLGDKGLVSSASATVSTQELEAQGRESLLSISTNSKIPYFLLFLIFLATVYYYDLMIGLAFYLFSLYWLYWEGGRQRESVKKK
binding [2]: binds | binding [3]: binds
